Measurements as given in PubChem BioAssay AID602313 (National Center for Advancing Translational Sciences (NCATS), 2012).
In all, about 390,000 compounds went through this assay and about 760 (0.19%) were called active. This list was built around the results that the source calls inconclusive (neither active nor inactive); the mix of calls is not that of the screen. Calls come from the whole dose curve; as a rule, active = well fitted inhibition curve with a large enough effect; inconclusive = small, poorly fitted or top-dose-only effect; inactive = flat fitted curve, though single readings scatter. Where the call is inconclusive, the potency comes from a doubtful curve fit.

Assay: qHTS for Inhibitors of Vif-A3F Interactions: qHTS; note: nearly all actives have a fitted effect of over 65% in size; for activity, negative = active: % of control where 0% means no effect
Conditions: HeLa A3F-eYFP + Vif (tagged APOBEC3F with the HIV-1 protein that degrades it), YFP fluorescence increase; series mostly up to 46.1 µM; activity, negative = active: at the top concentration
Summary of the method: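 HeLa cells stably expressing Vif plus C-terminally eYFP-tagged A3F were seeded, incubated overnight at 37 deg C, dosed with compound, incubated overnight again at 37 deg C. Yellow fluorescence (Ex 488/Em 500-530) reported blocked Vif-mediated A3F-eYFP degradation.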
Potency is the fitted concentration of half-maximal effect.

**Q.** Which “activity, negative = active” value does the source give for `CCOC(=O)c1sc(=NC(=O)c2c(F)cccc2F)n(C)c1C` here?
**A.** inactive: -6.8%

**Q.** Which “activity, negative = active” value does the source give for `O=C1C=C(C2CCCCC2)C(=O)c2ccccc21` here?
**A.** inactive: 5.04%

**Q.** Which Potency does the source give for `OC(CNCc1ccc(F)cc1)(c1ccc(F)cc1)c1ccc(F)cc1` here?
**A.** inconclusive: 35.5 µM [inhibitor, single point]

**Q.** With `Cc1ccccc1Cn1c2ccccc2c2cnn(CC(=O)NCc3ccco3)c(=O)c21` as the compound, how does the Potency read?
**A.** inconclusive: 35.5 µM [inhibitor, single point]

**Q.** For `COC(=O)CN1C(=O)COc2ccc(S(=O)(=O)N3CCCC3)cc21`, which “activity, negative = active” value is on record?
**A.** inactive: 0.414%

**Q.** For `O=C(COc1ccc(F)cc1)N/N=C/c1cccc2cccnc12`, which “activity, negative = active” value is on record?
**A.** inactive: -2.74%

**Q.** For `O=C(Nc1ccccc1)c1ccc[nH]1`, which Potency is on record?
**A.** inconclusive: 3.55 µM [inhibitor, single point]

**Q.** Which Potency does the source give for `COc1cccc(C(=O)NC(=S)Nc2ccccc2N2CCCC2)c1` here?
**A.** inconclusive: 35.5 µM [inhibitor, single point]

**Q.** With `COC(=O)c1c(N2C(=O)[C@H]3[C@@H](C2=O)[C@]2(C(=O)Nc4c(C)cc(C)cc42)N2CCC[C@@H]32)sc(C)c1C` as the compound, how does the Potency read?
**A.** inconclusive: 8.91 µM [inhibitor, partial curve]

**Q.** For `Cc1ccc2cccc(NS(=O)(=O)c3ccccc3)c2n1`, which Potency is on record?
**A.** inconclusive: 10 µM [inhibitor, partial curve, poor fit]

**Q.** For `Nc1ccc(/C=C/C(=O)c2cccs2)cc1`, which Potency is on record?
**A.** inconclusive: 15.8 µM [inhibitor, partial curve, poor fit]

**Q.** Which “activity, negative = active” value does the source give for `O=S1(=O)C=C(Sc2nnc(-c3ccccc3)o2)c2ccccc21` here?
**A.** inactive: -0.552%

**Q.** For `CCS(=O)(=O)N1N=C(c2ccccc2)CC1c1ccc2nccnc2c1` (stereo not drawn), which Potency is on record?
**A.** inconclusive: 35.5 µM [inhibitor, partial curve, poor fit]

**Q.** With `O=C(CN1C(=O)CCSc2ccccc21)Nc1cccc(F)c1` as the compound, how does the Potency read?
**A.** inconclusive: 35.5 µM [inhibitor, single point]

**Q.** For `Cc1ccc(Nc2nc3ccccc3nc2Nc2c(C)n(C)n(-c3ccccc3)c2=O)cc1`, which “activity, negative = active” value is on record?
**A.** inactive: 7.17%

**Q.** For `Oc1ccc(N=Cc2ccc(OCc3ccccc3)cc2)cc1`, which Potency is on record?
**A.** inconclusive: 5.62 µM [inhibitor, single point]

**Q.** For `CCOC(=O)c1cc2c(=O)n3ccccc3nc2n(Cc2ccco2)c1=NC(=O)c1ccc(OCC)cc1`, which Potency is on record?
**A.** inconclusive: 12.6 µM [inhibitor, partial curve, poor fit]

**Q.** Which Potency does the source give for `CC(=O)N1CCN(c2ccc(C(N)=O)cc2[N+](=O)[O-])CC1` here?
**A.** inconclusive: 14.1 µM [inhibitor, single point]

**Q.** Which Potency does the source give for `Cc1cccnc1NC(=S)Nc1ccc(F)cc1F` here?
**A.** inconclusive: 17.8 µM [inhibitor, partial curve, poor fit]

**Q.** Which Potency does the source give for `COc1ccc(Cl)cc1NC(=O)CSC1=Nc2ccccc2C2=NC(CC(=O)NCc3cccs3)C(=O)N12` (stereo not drawn) here?
**A.** inconclusive: 11.2 µM [inhibitor, partial curve, poor fit]

**Q.** For `COc1ccccc1-n1nnnc1SCC(=O)Nc1oc(C)c2c(C)n[nH]c(=O)c12`, which “activity, negative = active” value is on record?
**A.** inactive: -9.11%

**Q.** Which Potency does the source give for `CC1CCCN(C(=O)COC(=O)CNS(=O)(=O)c2ccc3ccccc3c2)C1` (stereo not drawn) here?
**A.** inconclusive: 35.5 µM [inhibitor, single point]

**Q.** With `CCN1/C(=C/C=C/c2sc3ccccc3[n+]2CC)Sc2ccccc21` as the compound, how does the “activity, negative = active” value read?
**A.** inactive: -25.8%

**Q.** For `Cc1ccc(NC(=O)Cn2c(=O)n(Cc3nc(-c4ccccc4)no3)c(=O)c3cc4c(cc32)OCO4)c(C)c1`, which Potency is on record?
**A.** inconclusive: 3.16 µM [inhibitor, partial curve, poor fit]

**Q.** For `O=C(Cn1[nH]c(=O)c2ccccc2c1=O)OCC(=O)c1ccccc1Cl`, which Potency is on record?
**A.** inconclusive: 35.5 µM [inhibitor, single point]

**Q.** For `Cc1cc(/C=C(/C#N)C(=O)Nc2ccc(Cl)cc2)c(C)n1-c1cccnc1`, which Potency is on record?
**A.** inconclusive: 20 µM [inhibitor, partial curve, poor fit]

**Q.** Which Potency does the source give for `O=C(CCNC(=O)c1ccc([N+](=O)[O-])cc1)Nc1ccc(F)cc1` here?
**A.** inconclusive: 3.55 µM [inhibitor, partial curve, poor fit]

**Q.** With `O=C1[C@@H](Oc2ccccc2)[C@@H](c2cnc3ccccc3c2)N1c1ccccc1` as the compound, how does the Potency read?
**A.** inconclusive: 3.55 µM [inhibitor, single point]

**Q.** With `COc1cccc2cc(-c3nc(-c4ccc(C)cc4)c(C)s3)c(=O)oc12` as the compound, how does the Potency read?
**A.** inconclusive: 15.8 µM [inhibitor, partial curve, poor fit]

**Q.** Which “activity, negative = active” value does the source give for `COc1ccc2c(c1OC)C(=O)N(c1cccc(C)c1)C2` here?
**A.** inactive: -2.79%

**Q.** Which Potency does the source give for `O=C(NC(=S)N(CCO)Cc1ccccc1)c1cc(Br)ccc1Cl` here?
**A.** inconclusive: 3.55 µM [inhibitor, single point]

**Q.** For `Cc1ccc(NC(=O)c2cc(S(=O)(=O)Nc3ccc(C)cc3)cs2)cc1`, which “activity, negative = active” value is on record?
**A.** inactive: -2.63%

**Q.** For `O=C(Nc1nnc(SCc2cc(=O)n3cc(Cl)ccc3n2)s1)c1cccc(F)c1`, which Potency is on record?
**A.** inconclusive: 28.2 µM [inhibitor, single point]

**Q.** With `COC(=O)c1ccc(C)cc1C1CN=NC12Cc1cc(C)ccc1C2=O` (stereo not drawn) as the compound, how does the “activity, negative = active” value read?
**A.** inactive: -0.471%

**Q.** Which Potency does the source give for `C=C(C)C(=O)OCC(=O)NCc1ccccc1` here?
**A.** inconclusive: 3.55 µM [inhibitor, full curve, poor fit]

**Q.** With `CCOC(=O)C1CCN(C(=O)COc2ccc(S(=O)(=O)NC(C)(C)C)cc2)CC1` as the compound, how does the Potency read?
**A.** inconclusive: 22.4 µM [inhibitor, single point]

**Q.** For `CCN(CC(=O)NCc1ccccn1)S(=O)(=O)c1ccc(OC)cc1`, which Potency is on record?
**A.** inconclusive: 6.31 µM [inhibitor, single point]

**Q.** With `COc1ccc(C(=O)C(C)[n+]2ccc(C)c3ccccc32)cc1[N+](=O)[O-]` (stereo not drawn) as the compound, how does the Potency read?
**A.** inconclusive: 3.55 µM [inhibitor, partial curve, poor fit]

**Q.** For `CC1CCC(C(C)C)C(OCC(O)C[N+]2(C)CCCCC2)C1` (stereo not drawn), which Potency is on record?
**A.** inconclusive: 11.2 µM [inhibitor, single point]

**Q.** Which “activity, negative = active” value does the source give for `CCCCCCCCCCCNC(=O)c1ccoc1C` here?
**A.** inactive: -1.16%

**Q.** Which Potency does the source give for `CCOC(=O)CCc1ccc(NC(=O)/C=C/c2ccc([N+](=O)[O-])o2)cc1` here?
**A.** active: 11.2 µM

**Q.** With `CC(/C=C/c1ccco1)=N\NC(=O)C(O)c1ccccc1` (stereo not drawn) as the compound, how does the “activity, negative = active” value read?
**A.** inactive: 2.32%

**Q.** Which “activity, negative = active” value does the source give for `Cc1nonc1NC(=O)c1ccc(Cl)c(S(=O)(=O)N2CCCCC2)c1` here?
**A.** inactive: 7.38%
